# Test results taken from PubChem BioAssay AID1347423 (Functional Genomics Laboratory (NCATS/FGL), 2020).
# Out of some 52,000 sequences screened, about 210 (0.4%) were called active.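 How the source made its calls: active means gene whose silencing raises cell survival under the drug, median off-target-corrected z-score across its silencing RNAs 2 or more; inactive means the rest.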 The list shows a part of the results.
# Experiment: Resistance to Poly (ADP-Ribose) Polymerase inhibitor: Gene Identification via Genome-wide siRNA Screen
# Conditions: mouse BRCA2 R2336H ES cells, olaparib, CellTiter-Glo viability; active compounds read high
# How it was run: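 Mouse BRCA2 R2336H ES cells were reverse-transfected with siRNA (20 nM final), treated at 48 h with 500 nM olaparib, and read by CellTiter-Glo after 72 h. Scores: MAD-based z per siRNA, median per gene, seed off-target correction.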
row,Sequence,z-score
1,GGAGGAGAAAGAGGAUUCATT against E430039K05Rik,inactive: 0.433
2,GGAGAUGGAUAAUUACGAGTT against Rabl4,inactive: 2.1
3,CGAAUACGAAGCAGAAAAGTT against Smarce1,inactive: -1.21
4,GGCCCUUCAAGAAUCUCUGTT against F830003B07,inactive: -1.79
5,GGCAAGAAAUUCAAAAGCUTT against Supv3l1,inactive: -0.137
6,UGAAUAAGGUGUGGUGCUCTT against V1rd14,inactive: 1.96
7,GCGAGAGUCACAAAGUGCATT against Wbscr16,inactive: -0.847
8,GGAGUGUGUCUAUACUAUUTT against Otor,inactive: 0.541
9,GCCAUUGCUAGUAAUUCUUTT against Vkorc1l1,inactive: 0.254
10,GGCACUGGAUCUUACAGAATT against 1700034I23Rik,inactive: 0.748
11,GGAGAUUUACUCACAGUUCTT against Kcnip4,inactive: -0.935
12,GGCCUUUGCUCUAAACAGCTT against Rad52b,inactive: 0.157
13,GCUUCAGACCCACGCAUAATT against Taf10,inactive: -0.99
14,GGACUAUGGCUGCUGCUCATT against 4921520P21Rik,inactive: -1.67
15,GGUCAAGUGUAACAAAGAATT against Bcorl1,inactive: -1.03
16,CACAGGAGCCAAUGAUGCUTT against Taar7d,inactive: -1.56
17,CCUCAAAUUUUGGGUCUCATT against Bcat2,inactive: -1.8
18,CCCUCAGUACCUAAUUAAGTT against Capn2,inactive: 0.114
19,GGCAGAAUGGGAAAUGUAUTT against Htr7,inactive: 2.92
20,GGUCUGUCUCGUCUACAAUTT against Gstm1,inactive: -1.16
21,ACUACUCAGACAUCUCUUGTT against Capn11,inactive: 2.55
22,CCAUUCCAAAGCACUCUUATT against Cerkl,inactive: -0.287
23,GGAAUUCAUUAGAAACCAGTT against Psmc1,inactive: -0.119
24,GCUGCACAUUGUCCAUUAUTT against Car12,inactive: -0.13
25,GGAGAAUUUACCUCCUAUUTT against 2310042P20Rik,inactive: -1.04
26,CGAAGCUCUAAUUUCAUGUTT against Pik3c3,inactive: 1.19
27,GGAAAGAUGAGUUUCUGUUTT against Arf3,inactive: -0.264

row,Sequence,z-score
1,GCCAGGAACCCUUUUAAUCTT against D630003K02Rik,inactive: 1.3
2,GGAGAAAAACAUCAUUGAATT against Reck,inactive: 0.155
3,GGACUGGAGUGGUUUGUCUTT against Atp9b,inactive: 0.57
4,GGUUAAAUGCCCGCCAACATT against Eif2ak4,inactive: -1.65
5,GCGUGAAUGAGGGAUCAGATT against Nphs1,inactive: -0.92
6,GGCAGAGUUUGAAAAGAUCTT against BC055447,inactive: 0.552
7,GGCUUGUUUCCAAAAUAGGTT against 3110032G18Rik,inactive: -0.0199
8,GCCCAUCAGAUGGCAAGAUTT against 9030221M09Rik,inactive: -3.15
9,GGCUAAGAAGGAGAUUAAATT against Gas2,inactive: 0.68
10,CGGGCAUGAUGAAUCGAUGTT against Ldhd,inactive: -0.2
11,GGAGACACAACCAACAUUATT against Cnr1,inactive: -0.067
12,CGGUCAUGUCUACAUGUGCTT against Pfc,inactive: 0.381
13,GGAAUCUUUGUCCGUGAGCTT against Prx,inactive: -0.262
14,GCAAAGGACCUAAUUUAUUTT against Ehd4,inactive: 0.489
15,GCACAGAUCUUUUUGUUCUTT against Olfr297,inactive: -1.07
16,GCCAGUGAGUUUAUCAGCCTT against AB114826,inactive: -0.89
17,CCUUAUGAGUCUUACGACUTT against Zfp326,inactive: -0.0147
18,CCAUCUGUCUUCUAUUUCATT against Echdc1,inactive: 0.619
19,GGCCUUACUAAAGAACCGCTT against Ipo4,inactive: 0.0978
20,GGAAGCAGAGAGUUAGAAGTT against Ndel1,inactive: -1.17
21,GGUCUAGCAGCAAUGAAUGTT against 9030405D14Rik,inactive: 2.21
22,CCCAGAAGGACGGCACUAGTT against H2-DMb2,inactive: -1.48
23,CGACAUGAUUACUAUUCUCTT against Eif4ebp1,inactive: -0.0612
24,GCAUUUUGUGAGCGUACAATT against Itgal,inactive: 1.52
25,GGCUGUUUGCCUGUAUUCUTT against Olfr259,inactive: 1.5
26,GGUACCAGAACACAAGACCTT against Vkorc1,inactive: 1.07
27,GGACACAAAUGACAUCAACTT against Ptpns1,inactive: -0.156

# Looked up one by one from the list above:
row,Sequence,z-score
24,GCAUUUUGUGAGCGUACAATT against Itgal,inactive: 1.52
20,GGAAGCAGAGAGUUAGAAGTT against Ndel1,inactive: -1.17
16,GCCAGUGAGUUUAUCAGCCTT against AB114826,inactive: -0.89
27,GGACACAAAUGACAUCAACTT against Ptpns1,inactive: -0.156
1,GCCAGGAACCCUUUUAAUCTT against D630003K02Rik,inactive: 1.3

# Continuation.

row,Sequence,z-score
1,GGCGGAUUGAAUAAGAAGGTT against Pfn2,inactive: -0.273
2,GGUUCUCAUUGUUGUUGUATT against Prkcb1,inactive: -0.453
3,GGUUUUCAGUCACACAUCATT against 4732493F09Rik,inactive: -1.42
4,GGGUUGCCAAGACUUGAUATT against 1190003K14Rik,inactive: -0.838
5,GGAGUGACUCCAAAUUUACTT against C6.1A,inactive: 0.366
6,GGAAAAUUACUCCACUUUUTT against R3hdm,inactive: -0.411
7,GGUGUCAGUGAAGGCGAAATT against Hist1h1a,inactive: -0.264
8,GCGGAUGCCAGAUGAUUAUTT against 1110008B24Rik,inactive: 0.989
9,CGAUAAAUCACCUCAAGAUTT against Kcnn4,inactive: 0.471
10,GGGAAGGUAAGGCAUAAGCTT against 9430023B20Rik,inactive: 0.354
11,GGAGAAGCUAGAGUUCAUGTT against Fosl2,inactive: -1.28
12,GGUUCUUUGUGAACUUCCCTT against Cygb,inactive: 0.163
13,GGAUCACAUACGUACACAATT against Dpp8,inactive: 0.248
14,CGCAAUAAAGAAGAUAAACTT against Slc35f3,inactive: -0.122
15,GAUCUUUGUCCUCAUUCUCTT against Olfr1206,inactive: 0.359
16,GCACGAGGAUUCAGAUAUCTT against Gusb,inactive: 0.512
17,UACUUGUAGCCAUGGCUCUTT against Olfr685,inactive: -2.19
18,GGUGAACAUAGAUCACGAGTT against Rgs16,inactive: -0.212
19,GGAAUUCUUCAUCCAUGGATT against Olfr570,inactive: -0.618
20,GGCAAAUAGUUUCUUCAAUTT against Npnt,inactive: -0.283
21,GGGAUUCAUACUACUUAACTT against Olfr304,inactive: 0.176
22,GGGACAUUUCCAUCCUUUUTT against Prdx6-rs1,inactive: 1.1
23,GCCAAAACAAGUAUGCCCUTT against 4921511C04Rik,inactive: 0.215
24,GGACUACAAGGAUAACCCGTT against Sf4,inactive: 0.406
25,GGGUUAAAGCGAGUGGGUCTT against BC023814,inactive: -0.57
26,CCAUAUAUGAUAGGAAACUTT against Pon2,inactive: 0.627
27,CGGUGCUUCUGAAACUAGATT against Lrrc3,inactive: -0.192

row,Sequence,z-score
1,GGCCUGAGAGUAACUCAAATT against Fhit,inactive: 2.24
2,GCCCGUAUGGAUUUCACACTT against Tcte1l,inactive: -0.327
3,GCACACCAGAUCUACUUCUTT against Cyp2b9,inactive: 0.172
4,GCUCAUAAGUCUAUUACUGTT against Asb14,inactive: -0.282
5,GGCUCAACGGCUUAGGGAATT against B3gat3,inactive: 0.417
6,GGGUUCGAUACGACUGCCATT against Arhgef7,inactive: -0.729
7,GGAUCACUAACUUUUCCAATT against Trpc3,inactive: 0.77
8,GCCGAAUCCGAACAAAACCTT against Tat,active: 1.35
9,GGCCAACUGAUUAAGAAACTT against Chrnb1,active: 2.28
10,GGUAUCAUGGAGGAGAUGGTT against Lhx9,inactive: -0.201
11,GGGCCUAAAAGGGUUAAGGTT against C330019G07Rik,inactive: 0.93
12,GCGAGUCUAUGUGUUCCCUTT against Cox4i2,inactive: -0.46
13,GCCUCGUGUAUCACAGAAUTT against Bpy2ip1,inactive: 0.828
14,CCAAGGCCGAAAAGCCUGUTT against 2510038A11Rik,inactive: 0.36
15,GGAGCUUCACUAAGUAACATT against Zfp239,inactive: -0.416
16,GCUUCUCAAGAGUGAAAUATT against 2600014C01Rik,inactive: -1
17,GGAACAACAUGAUUGUCGUTT against Ugt1a6,inactive: -0.575
18,GGUCAAAUAUGGAGAUCUUTT against Atp2b3,inactive: 0.994
19,GGCCUUUAUCAGCGGUGAUTT against Srd5a2,inactive: -1.99
20,GGACUGAGAACCAGAUCAUTT against 1500026D16Rik,inactive: 2.2
21,GGAAAUAUAUGUCAUGUCATT against Nars,inactive: 0.0093
22,CCAUGUCAACGACCAUCAUTT against Glis2,inactive: 2.11
23,GGUAAAAUGUACUCAAUGUTT against Clp1,inactive: 0.0889
24,GGUCGACAUUUUGAAGGAGTT against Fthl17,inactive: -1.43
